Data source: PubChem BioAssay AID1259327 (Drosophila RNAi Screening Center, 2017)

- Aim: 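Data from controls in screens of zinc and manganese toxicity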
- Cell system: Drosophila S2R+ cells
- Knock-down reagent: long dsRNA against Drosophila genes
- Time to read-out: 5 days (water added on day 4, read one day later)
- Treatment: water added as vehicle, no metal, one day before read-out
- Detection: 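Luciferase ATP signal per well, normalised to plate mean, duplicate average converted to z-score across plates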
- Scale: ATP z-score: higher = more total ATP than typical wells; ATP luminescence: higher = more total ATP
- Active means: 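Called active when the ATP z-score exceeds 1.5 or falls below -1.5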
- Meaning of the calls: active = hit: ATP up or down; inactive = no clear ATP change
The deposit covers about 3,100 reagents; shown is a part drawn at random. 378 of them (12%) count as active. 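Hits include both directions; z-score sign shows ATP rise or fall; raw luminescence values are not plate-normalised.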 Entries without a mark were called inactive. Names joined by + are all predicted targets of the reagent. Not stated in the record: the amount of reagent.

| Gene | dsRNA | ATP z-score, duplicate mean | ATP luminescence, replicate 1 (RLU) | ATP luminescence, replicate 2 (RLU) |
| --- | --- | --- | --- | --- |
| Inx5 (Innexin 5) | DRSC20051 | 0.0479 | 7.32e5 | 7.64e5 |
| Ctl1 (Choline transporter-like 1) | DRSC08303 | -0.06 | 9.03e5 | 8.73e5 |
| Ctl1 (Choline transporter-like 1) | DRSC39447 | -1.5 (active) | 4.02e5 | 3.08e5 |
| Pvr (PDGF- and VEGF-receptor related) | DRSC03080 | -2.6 (active) | 3.13e5 | 2.80e5 |
| Pvr (PDGF- and VEGF-receptor related) | DRSC36840 | 4.59 (active) | 9.70e5 | 9.67e5 |
| Pvr (PDGF- and VEGF-receptor related) | DRSC36841 | 5.66 (active) | 1.00e6 | 1.12e6 |
| Unc-115b + p24-2 | DRSC16492 | -0.388 | 6.70e5 | 6.61e5 |
| amx (almondex) | DRSC23466 | -0.476 | 7.88e5 | 7.95e5 |
| amx (almondex) | DRSC39794 | 0.843 | 5.29e5 | 5.47e5 |
| Or19a + Or19b | DRSC22604 | -2.05 (active) | 4.02e5 | 5.44e5 |
| Or19a + Or19b | DRSC39643 | -0.622 | 4.62e5 | 3.82e5 |
| Gr39b (Gustatory receptor 39b) | DRSC26464 | -1.52 (active) | 8.39e5 | 9.99e5 |
| Gr39b (Gustatory receptor 39b) | DRSC39892 | 1.3 | 6.73e5 | 7.19e5 |
| CadN2 (Cadherin-N2) | DRSC03062 | -0.873 | 6.43e5 | 6.24e5 |
| CadN2 (Cadherin-N2) | DRSC03063 | -0.649 | 8.33e5 | 7.89e5 |
| CG10353 | DRSC19354 | -1.29 | 5.07e5 | 6.88e5 |
| CG10353 | DRSC29888 | 0.115 | 6.10e5 | 5.68e5 |
| Sln (Silnoon) | DRSC07133 | 0.702 | 6.59e5 | 7.08e5 |
| Sln (Silnoon) | DRSC24171 | 0.408 | 9.08e5 | 8.94e5 |
| CG32432 | DRSC11744 | -0.514 | 8.78e5 | 7.81e5 |
| Best3 (Bestrophin 3) | DRSC09880 | 0.503 | 9.82e5 | 9.42e5 |
| Best3 (Bestrophin 3) | DRSC39740 | 1.92 (active) | 5.82e5 | 6.10e5 |
| Tmhs (Tetraspan membrane protein in hair cell stereocilia) | DRSC08231 | 0.723 | 8.87e5 | 7.27e5 |
| Fs(2)Ket (Female sterile (2) Ketel) | DRSC03328 | -4.04 (active) | 1.74e5 | 2.20e5 |
| Fs(2)Ket (Female sterile (2) Ketel) | DRSC23439 | -3.79 (active) | 4.74e5 | 2.84e5 |
| CG32091 | DRSC10820 | 0.674 | 9.60e5 | 1.01e6 |
| CG32091 | DRSC39787 | 0.532 | 4.85e5 | 5.50e5 |
| Ptr (Patched-related) | DRSC04852 | 0.107 | 6.63e5 | 5.96e5 |
| Ptr (Patched-related) | DRSC21517 | 0.536 | 5.38e5 | 7.13e5 |
| scb (scab) | DRSC05542 | -0.11 | 7.05e5 | 7.57e5 |
| scb (scab) | DRSC07678 | 0.83 | 7.33e5 | 6.56e5 |
| Or49a (Odorant receptor 49a) | DRSC07493 | 0.151 | 7.11e5 | 5.55e5 |
| Or49a (Odorant receptor 49a) | DRSC39708 | 1.14 | 6.19e5 | 4.64e5 |
| loj (logjam) | DRSC09791 | -0.113 | 6.45e5 | 7.95e5 |
| loj (logjam) | DRSC39866 | -3.01 (active) | 3.11e5 | 3.46e5 |
| eag (ether a go-go) | DRSC19067 | -1.5 | 4.66e5 | 5.02e5 |
| eag (ether a go-go) | DRSC20328 | 0.0648 | 5.42e5 | 8.04e5 |
| eag (ether a go-go) | DRSC28295 | -0.174 | 1.02e6 | 9.94e5 |
| CG11437 | DRSC11659 | 0.425 | 9.79e5 | 9.25e5 |
| Or74a (Odorant receptor 74a) | DRSC11245 | -0.344 | 8.43e5 | 8.57e5 |
| CG5885 | DRSC02910 | 1.31 | 5.60e5 | 5.81e5 |
| CG5885 | DRSC28761 | -0.287 | 8.08e5 | 7.70e5 |
| CG4073 | DRSC15542 | 3.35 (active) | 3.40e5 | 1.40e6 |
| VhaPPA1-1 (Vacuolar H[+] ATPase PPA1 subunit 1) | DRSC16170 | 1.26 | 8.85e5 | 7.87e5 |
| VhaPPA1-1 (Vacuolar H[+] ATPase PPA1 subunit 1) | DRSC24144 | -0.267 | 8.14e5 | 8.20e5 |
| CG13978 | DRSC14720 | -1.59 (active) | 5.34e5 | 6.63e5 |
| Duox (Dual oxidase) | DRSC00571 | -0.436 | 6.80e5 | 6.42e5 |
| Duox (Dual oxidase) | DRSC27209 | 0.497 | 1.07e6 | 1.20e6 |
| Dop1R1 (Dopamine 1-like receptor 1) | DRSC13021 | -0.0729 | 7.40e5 | 7.29e5 |
| Dop1R1 (Dopamine 1-like receptor 1) | DRSC16652 | 0.0677 | 3.12e5 | 7.45e5 |
| Dop1R1 (Dopamine 1-like receptor 1) | DRSC23514 | -0.202 | 9.13e5 | 7.37e5 |
| Or42b (Odorant receptor 42b) | DRSC04913 | 0.845 | 6.06e5 | 7.86e5 |
| Or42b (Odorant receptor 42b) | DRSC27273 | 0.218 | 7.70e5 | 8.57e5 |
| CG5404 | DRSC28832 | -0.352 | 8.12e5 | 7.51e5 |
| CG5404 | DRSC39809 | 1.3 | 5.16e5 | 6.28e5 |
| CHOp24 | DRSC18310 | -0.345 | 6.87e5 | 6.53e5 |
| CHOp24 | DRSC39433 | -1.52 (active) | 3.65e5 | 3.40e5 |
| CG14053 | DRSC17908 | 0.242 | 6.49e5 | 7.23e5 |
| CG14053 | DRSC39512 | 0.243 | 4.50e5 | 4.86e5 |
| IA-2 (IA-2 protein tyrosine phosphatase) | DRSC00652 | 0.469 | 5.28e5 | 4.94e5 |
| IA-2 (IA-2 protein tyrosine phosphatase) | DRSC24588 | 0.105 | 9.17e5 | 8.09e5 |
| IA-2 (IA-2 protein tyrosine phosphatase) | DRSC36830 | 0.596 | 5.30e5 | 7.32e5 |
| IA-2 (IA-2 protein tyrosine phosphatase) | DRSC36831 | 1.07 | 6.25e5 | 7.16e5 |
| Tret1-1 (Trehalose transporter 1-1) | DRSC07046 | 0.452 | 6.55e5 | 6.66e5 |
| Tret1-1 (Trehalose transporter 1-1) | DRSC25701 | -0.297 | 8.27e5 | 7.51e5 |
| Lfg + asRNA:CR43468 | DRSC06853 | -0.961 | 4.80e5 | 5.85e5 |
| Vha16-5 (Vacuolar H[+] ATPase 16kD subunit 5) | DRSC02986 | 0.485 | 7.60e5 | 7.95e5 |
| COX6AL2 + Ir75d | DRSC10081 | -0.629 | 8.46e5 | 7.82e5 |
| COX6AL2 + Ir75d | DRSC39747 | 1.44 | 6.18e5 | 5.06e5 |
